Data as given in PubChem BioAssay AID1259308 (NCATS, 2017)

- Test: 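Genes whose loss raises luciferase production in HEK293 cells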 (primary screen)
- System: human HEK293 embryonic kidney cells stably expressing firefly luciferase (HEK-CMV-Luc2-Hygro)
- Reagents: single siRNA against human genes, 0.8 pmol siRNA per well
- Time to read-out: 72 h
- Read-out: 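Reporter luminescence and viable-cell signal on separate replicate plates, given as percent of non-targeting control and median/MAD z-scores, plus per-cell luciferase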
- Reading the numbers: total luciferase, z-score and total luciferase, % of control: higher = more reporter protein produced; luciferase per cell, z-score: higher = more reporter output per viable cell; viable cells, % of control: higher = more viable cells
- Call rule: 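Active when the median/MAD z-score for overall luciferase is greater than 3; a gene was taken forward for validation with new siRNAs if at least two of its three siRNAs passed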
- Calls: active = raised luciferase; inactive = no rise
The deposit covers about 59,000 reagents; shown is an unselected part. About 1,510 of them (2.6%) count as active. 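Calls use total luciferase alone and ignore viability, so some active siRNAs may act by altering cell number.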 The numbers tell different reagents against one gene apart.

no.	gene	siRNA no.	total luciferase, z-score	total luciferase, % of control	luciferase per cell, z-score	viable cells, % of control	activity call
1	ANKRD45 (GeneID 339416)	1	-0.832	65.3	-0.421	81.6	inactive
2	ANKRD45 (GeneID 339416)	2	0.756	96.9	0.589	92.7	inactive
3	ANKRD45 (GeneID 339416)	3	0.145	84.8	0.266	88.3	inactive
4	TBC1D25 (GeneID 4943)	1	-0.214	77.6	-0.283	93.5	inactive
5	TBC1D25 (GeneID 4943)	2	0.134	84.6	-0.206	99.7	inactive
6	TBC1D25 (GeneID 4943)	3	2.92	140	1.8	97.3	inactive
7	CNEP1R1 (GeneID 255919)	1	-1.81	45.9	-1.82	82.9	inactive
8	CNEP1R1 (GeneID 255919)	2	0.0319	82.5	0.862	73.5	inactive
9	CNEP1R1 (GeneID 255919)	3	0.439	90.6	0.254	94.7	inactive
10	EIF2B4 (GeneID 8890)	1	0.062	83.1	-0.0649	94.5	inactive
11	EIF2B4 (GeneID 8890)	2	-1.8	46.1	-1.96	86.4	inactive
12	EIF2B4 (GeneID 8890)	3	-1.27	56.7	0.135	61.1	inactive
13	PTGIR (GeneID 5739)	1	1.22	106	0.566	102	inactive
14	PTGIR (GeneID 5739)	2	0.345	88.7	0.34	90.7	inactive
15	PTGIR (GeneID 5739)	3	0.901	99.8	0.561	96.2	inactive
16	TMEM70 (GeneID 54968)	1	0.77	97.2	0.115	105	inactive
17	TMEM70 (GeneID 54968)	2	1.2	106	1.85	72.7	inactive
18	TMEM70 (GeneID 54968)	3	1.8	118	2.76	63.6	inactive
19	SEPTIN4 (GeneID 5414)	1	3.72	156	1.72	111	active
20	SEPTIN4 (GeneID 5414)	2	0.0722	83.3	0.0913	90.9	inactive
21	SEPTIN4 (GeneID 5414)	3	3.55	152	3.43	69	active
22	SEPTIN4 (GeneID 5414)	4	-1.13	59.4	-0.712	80	inactive
23	SEPTIN4 (GeneID 5414)	5	-1.1	60.1	-0.968	86.6	inactive
24	SEPTIN4 (GeneID 5414)	6	-0.185	78.2	0.381	79.1	inactive
25	UQCC3 (GeneID 790955)	1	0.441	90.7	-0.246	108	inactive
26	UQCC3 (GeneID 790955)	2	0.684	95.5	0.988	82.3	inactive
27	UQCC3 (GeneID 790955)	3	0.238	86.6	-0.158	101	inactive
28	NPM2 (GeneID 10361)	1	1.36	109	2.97	55.8	inactive
29	NPM2 (GeneID 10361)	2	-0.271	76.5	-0.615	101	inactive
30	NPM2 (GeneID 10361)	3	-0.819	65.6	0.168	70.1	inactive
31	REEP6 (GeneID 92840)	1	-1.84	45.3	-1.94	84.5	inactive
32	REEP6 (GeneID 92840)	2	-1.16	58.7	-1.23	90.8	inactive
33	REEP6 (GeneID 92840)	3	0.0362	82.6	0.532	80.2	inactive
34	TSPYL2 (GeneID 64061)	1	0.483	91.5	0.229	96.2	inactive
35	TSPYL2 (GeneID 64061)	2	-0.0138	81.6	-0.0933	93.5	inactive
36	TSPYL2 (GeneID 64061)	3	1.22	106	1.79	74.1	inactive

Continued; the last 5 above are carried over.
no.	gene	siRNA no.	total luciferase, z-score	total luciferase, % of control	luciferase per cell, z-score	viable cells, % of control	activity call
32	REEP6 (GeneID 92840)	2	-1.16	58.7	-1.23	90.8	inactive
33	REEP6 (GeneID 92840)	3	0.0362	82.6	0.532	80.2	inactive
34	TSPYL2 (GeneID 64061)	1	0.483	91.5	0.229	96.2	inactive
35	TSPYL2 (GeneID 64061)	2	-0.0138	81.6	-0.0933	93.5	inactive
36	TSPYL2 (GeneID 64061)	3	1.22	106	1.79	74.1	inactive
37	GPR20 (GeneID 2843)	1	1.3	108	1.3	85.5	inactive
38	GPR20 (GeneID 2843)	2	0.0572	83	0.0775	90.9	inactive
39	GPR20 (GeneID 2843)	3	-0.07	80.5	-0.42	100	inactive
40	PLAC8L1 (GeneID 153770)	1	-0.0573	80.7	-0.423	101	inactive
41	PLAC8L1 (GeneID 153770)	2	-0.676	68.4	-0.521	87.7	inactive
42	PLAC8L1 (GeneID 153770)	3	1.11	104	1.06	87.9	inactive
43	LYPLAL1 (GeneID 127018)	1	-0.21	77.7	0.445	77.2	inactive
44	LYPLAL1 (GeneID 127018)	2	0.17	85.3	0.48	84	inactive
45	LYPLAL1 (GeneID 127018)	3	0.174	85.3	-0.305	103	inactive
46	GET3 (GeneID 439)	1	2.56	133	2.12	84.9	inactive
47	GET3 (GeneID 439)	2	1.31	108	1.14	89.5	inactive
48	GET3 (GeneID 439)	3	-1.25	56.9	-1.64	98.1	inactive
49	SLC25A15 (GeneID 10166)	1	0.723	96.3	0.692	89.7	inactive
50	SLC25A15 (GeneID 10166)	2	2.15	125	1.47	94.6	inactive
51	SLC25A15 (GeneID 10166)	3	-0.535	71.3	-0.849	99.6	inactive
52	PDIK1L (GeneID 149420)	1	-1.58	50.5	-1.73	88.9	inactive
53	PDIK1L (GeneID 149420)	2	0.23	86.5	0.106	94	inactive
54	PDIK1L (GeneID 149420)	3	0.748	96.8	1.2	78.8	inactive
55	MEGF8 (GeneID 1954)	1	-0.241	77.1	-0.402	95.8	inactive
56	MEGF8 (GeneID 1954)	2	-1.01	61.8	-0.797	85.2	inactive
57	MEGF8 (GeneID 1954)	3	-0.13	79.3	-0.176	92.8	inactive
